Results taken from patent US12503439B2, “Heteroaryl compounds for the treatment of pain” (VERTEX PHARMACEUTICALS INCORPORATED, priority 2022, dated 2025).
Some of these results come from one statement about several compounds together.

Protein sequences, listed by entry. Tags and fused reporters are not part of them. Residues count along the entry.
UniProt Q9Y5Y9, 126-1722 limits assumed: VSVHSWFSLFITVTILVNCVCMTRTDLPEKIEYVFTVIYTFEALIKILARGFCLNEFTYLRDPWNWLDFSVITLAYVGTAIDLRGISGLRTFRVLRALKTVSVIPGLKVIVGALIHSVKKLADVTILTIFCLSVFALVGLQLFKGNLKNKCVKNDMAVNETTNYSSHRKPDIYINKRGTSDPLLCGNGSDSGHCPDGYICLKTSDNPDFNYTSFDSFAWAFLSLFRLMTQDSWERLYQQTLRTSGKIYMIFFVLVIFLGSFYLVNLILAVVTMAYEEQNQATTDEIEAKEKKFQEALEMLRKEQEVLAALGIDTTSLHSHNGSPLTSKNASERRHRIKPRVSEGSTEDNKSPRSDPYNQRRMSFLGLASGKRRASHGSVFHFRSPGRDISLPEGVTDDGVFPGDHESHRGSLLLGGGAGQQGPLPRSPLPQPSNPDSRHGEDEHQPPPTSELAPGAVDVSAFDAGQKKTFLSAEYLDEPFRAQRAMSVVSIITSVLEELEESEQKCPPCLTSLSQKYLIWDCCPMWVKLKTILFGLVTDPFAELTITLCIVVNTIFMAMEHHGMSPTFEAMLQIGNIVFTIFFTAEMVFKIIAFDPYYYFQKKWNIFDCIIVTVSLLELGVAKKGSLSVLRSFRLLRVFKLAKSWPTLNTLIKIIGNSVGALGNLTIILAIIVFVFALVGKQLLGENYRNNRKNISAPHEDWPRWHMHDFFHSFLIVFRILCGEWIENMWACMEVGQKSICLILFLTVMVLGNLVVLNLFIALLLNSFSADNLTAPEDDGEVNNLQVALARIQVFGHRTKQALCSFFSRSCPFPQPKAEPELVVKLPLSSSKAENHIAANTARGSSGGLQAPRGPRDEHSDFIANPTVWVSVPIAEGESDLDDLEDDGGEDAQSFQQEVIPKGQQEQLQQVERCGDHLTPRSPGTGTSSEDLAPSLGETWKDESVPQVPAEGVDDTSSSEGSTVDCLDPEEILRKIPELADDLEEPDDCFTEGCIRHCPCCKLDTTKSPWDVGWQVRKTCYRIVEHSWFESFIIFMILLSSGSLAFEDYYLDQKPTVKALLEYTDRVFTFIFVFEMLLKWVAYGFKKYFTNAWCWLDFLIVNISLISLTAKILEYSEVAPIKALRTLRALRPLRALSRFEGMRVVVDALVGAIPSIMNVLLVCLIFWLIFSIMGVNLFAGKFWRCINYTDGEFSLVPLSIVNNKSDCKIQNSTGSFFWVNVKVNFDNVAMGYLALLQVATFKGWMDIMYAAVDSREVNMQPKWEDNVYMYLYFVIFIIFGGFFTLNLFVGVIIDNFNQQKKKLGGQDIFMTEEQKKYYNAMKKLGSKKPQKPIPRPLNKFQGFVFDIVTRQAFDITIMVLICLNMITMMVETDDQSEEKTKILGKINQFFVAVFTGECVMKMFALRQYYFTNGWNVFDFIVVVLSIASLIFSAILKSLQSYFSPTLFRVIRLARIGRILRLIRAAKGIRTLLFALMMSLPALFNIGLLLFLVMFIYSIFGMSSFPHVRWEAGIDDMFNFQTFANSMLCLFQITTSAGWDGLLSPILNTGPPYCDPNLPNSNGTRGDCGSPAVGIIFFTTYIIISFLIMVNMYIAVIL

Target: truncated form of human NaV 1.8 with full channel activity (expressed in HEK cells) (Homo sapiens, UniProt Q9Y5Y9)
Assay: E-VIPR assay detecting and measuring NaV inhibition properties (electrical stimulation, membrane potential FRET dyes)
Type: cell-based
Details: HEK cells expressing truncated human NaV 1.8, KIR2.1 BacMam; 11-point dose response; 30 min compound incubation; stimulation 10 Hz for 10 s; read-out: measured IC50 value in the E-VIPR Assay

Structure (SMILES) | IC50 [nM]
NC(=O)c1nccc2[nH]c(-c3cc4ccccc4nc3N3CCC4CCCC4C3)cc(=O)c12 (centres unmarked) [Compound 298, 2-[2-(1,3,4,4a,5,6,7,7a-octahydrocyclopenta[c]pyridin-2-yl)-3-quinolyl]-4-oxo-1H-1,6-naphthyridine-5-carboxamide] | < 500
Cc1c(Oc2nc3ccccc3cc2-c2[nH]c3ccccc3c(=O)c2C)ccc(F)c1F [Compound 11, 2-[2-(3,4-difluoro-2-methyl-phenoxy)-3-quinolyl]-3-methyl-1H-quinolin-4-one] | < 500
NC(=O)c1nccc2[nH]c(-c3c(Br)c(C4(C(F)(F)F)CCC4)nn3C3CCC(F)(F)CC3)cc(=O)c12 [Compound 361, 2-[4-bromo-2-(4,4-difluorocyclohexyl)-5-[1-(trifluoromethyl)cyclobutyl]pyrazol-3-yl]-4-oxo-1H-1,6-naphthyridine-5-carboxamide] | < 500
O=c1c(Br)c(-c2cc3ccccc3nc2N2CCCC(F)(F)CC2)[nH]c2ccncc12 [Compound 315, 3-bromo-2-[2-(4,4-difluoroazepan-1-yl)-3-quinolyl]-1H-1,6-naphthyridin-4-one] | < 500
COc1c(-c2cc3ccccc3nc2N2CCCC(F)(F)CC2)[nH]c2ccnc(C(N)=O)c2c1=O [Compound 324, 2-[2-(4,4-difluoroazepan-1-yl)-3-quinolyl]-3-methoxy-4-oxo-1H-1,6-naphthyridine-5-carboxamide] | < 500
CCOC(=O)c1c(-c2c(C)cc(C(C)(C)C)cc2Oc2ccc(F)cc2OC)[nH]c2ccccc2c1=O [Compound 36, ethyl 2-[4-tert-butyl-2-(4-fluoro-2-methoxy-phenoxy)-6-methyl-phenyl]-4-oxo-1H-quinoline-3-carboxylate] | < 500
Cc1cc(-c2cc(=O)c3c(C(N)=O)nccc3[nH]2)c(N2CCCC(F)(F)CC2)nc1C(C)(C)C [Compound 92, 2-[6-tert-butyl-2-(4,4-difluoroazepan-1-yl)-5-methyl-3-pyridyl]-4-oxo-1H-1,6-naphthyridine-5-carboxamide] | < 500
Cc1c(Oc2ncc(C(F)(F)F)c(C)c2-c2cc(=O)c3c(N4CC[C@H](C(N)=O)C4)nccc3[nH]2)ccc(F)c1F [Compound 176, (3S)-1-[2-[2-(3,4-difluoro-2-methyl-phenoxy)-4-methyl-5-(trifluoromethyl)-3-pyridyl]-4-oxo-1H-1,6-naphthyridin-5-yl]pyrrolidine-3-carboxamide] | < 500
Cc1c(Oc2ncc(C(F)(F)F)c(C)c2-c2cc(=O)c3c(N4CC[C@@H](N(C)C)C4)nccc3[nH]2)ccc(F)c1F [Compound 184, 2-[2-(3,4-difluoro-2-methyl-phenoxy)-4-methyl-5-(trifluoromethyl)-3-pyridyl]-5-[(3R)-3-(dimethylamino)pyrrolidin-1-yl]-1H-1,6-naphthyridin-4-one] | < 500
COc1cc(F)ccc1Oc1cc(C(C)(C)C)cc(C)c1-c1cc(=O)c2ncccc2[nH]1 [Compound 29, 2-[4-tert-butyl-2-(4-fluoro-2-methoxy-phenoxy)-6-methyl-phenyl]-1H-1,5-naphthyridin-4-one] | < 500
NC(=O)c1nccc2[nH]c(-c3cc4ccccc4nc3N3CCC(F)(F)CC3)cc(=O)c12 [Compound 283, 2-[2-(4,4-difluoro-1-piperidyl)-3-quinolyl]-4-oxo-1H-1,6-naphthyridine-5-carboxamide] | < 500
COc1c(Oc2cc(C(F)(F)F)c(F)cc2-c2cc(=O)c3c(C)nccc3[nH]2)ccc(F)c1F [Compound 160, 2-[2-(3,4-difluoro-2-methoxy-phenoxy)-5-fluoro-4-(trifluoromethyl)phenyl]-5-methyl-1H-1,6-naphthyridin-4-one] | < 500
Cc1c(Oc2ncc(C(F)(F)F)c(C)c2-c2cc(=O)c3c(-c4ccccn4)nccc3[nH]2)ccc(F)c1F [Compound 240, 2-[2-(3,4-difluoro-2-methyl-phenoxy)-4-methyl-5-(trifluoromethyl)-3-pyridyl]-5-(2-pyridyl)-1H-1,6-naphthyridin-4-one] | < 500
Cc1c(C2(C(F)(F)F)CC2)nn(C2CCC(F)(F)CC2)c1-c1cc(=O)c2c(C(N)=O)nccc2[nH]1 [Compound 375, 2-[2-(4,4-difluorocyclohexyl)-4-methyl-5-[1-(trifluoromethyl)cyclopropyl]pyrazol-3-yl]-4-oxo-1H-1,6-naphthyridine-5-carboxamide] | < 500
COc1cccc(-c2nccc3[nH]c(-c4c(Oc5ccc(F)c(F)c5C)ncc(C(F)(F)F)c4C)cc(=O)c23)n1 [Compound 217, 2-[2-(3,4-difluoro-2-methyl-phenoxy)-4-methyl-5-(trifluoromethyl)-3-pyridyl]-5-(6-methoxy-2-pyridyl)-1H-1,6-naphthyridin-4-one] | < 500
CC(C)(C)c1ccc(-c2cc(=O)c3c(C(N)=O)nccc3[nH]2)c(CC2CCCCC2)c1 [Compound 109, 2-[4-tert-butyl-2-(cyclohexylmethyl)phenyl]-4-oxo-1H-1,6-naphthyridine-5-carboxamide] | < 500

Structure (SMILES) | IC50 [nM]
Cc1cc(-c2[nH]c3ccnc(C(N)=O)c3c(=O)c2Br)c(N2CCCC(F)(F)CC2)nc1C(F)(F)F [Compound 316, 3-bromo-2-[2-(4,4-difluoroazepan-1-yl)-5-methyl-6-(trifluoromethyl)-3-pyridyl]-4-oxo-1H-1,6-naphthyridine-5-carboxamide] | < 500
N#Cc1nccc2[nH]c(-c3cc4ccccc4nc3N3CCCC(F)(F)CC3)c(Br)c(=O)c12 [Compound 314, 3-bromo-2-[2-(4,4-difluoroazepan-1-yl)-3-quinolyl]-4-oxo-1H-1,6-naphthyridine-5-carbonitrile] | < 500
COc1ccc2c(=O)cc(-c3cc4ccccc4nc3Oc3ccc(F)c(F)c3C)[nH]c2c1 [Compound 22, 2-[2-(3,4-difluoro-2-methyl-phenoxy)-3-quinolyl]-7-methoxy-1H-quinolin-4-one] | < 500
Cc1cc(-c2cc(=O)c3c(C(N)=O)nccc3[nH]2)c(C2CCC(F)(F)CC2)nc1C(C)(C)C [Compound 114, 2-[6-tert-butyl-2-(4,4-difluorocyclohexyl)-5-methyl-3-pyridyl]-4-oxo-1H-1,6-naphthyridine-5-carboxamide] | < 500
Cc1c(Oc2cc(C3CC(F)(F)C3)ncc2-c2cc(=O)c3c(C(N)=O)nccc3[nH]2)ccc(F)c1F [Compound 139, 2-[6-(3,3-difluorocyclobutyl)-4-(3,4-difluoro-2-methyl-phenoxy)-3-pyridyl]-4-oxo-1H-1,6-naphthyridine-5-carboxamide] | < 500
Cc1cn(C)c(-c2nccc3[nH]c(-c4c(C)c(C(C)(C)C)nn4C4CCC(F)(F)CC4)cc(=O)c23)n1 [Compound 229, 2-[5-tert-butyl-2-(4,4-difluorocyclohexyl)-4-methyl-pyrazol-3-yl]-5-(1,4-dimethylimidazol-2-yl)-1H-1,6-naphthyridin-4-one] | < 500
Cc1cc(-c2cc(=O)c3c(Cl)nccc3[nH]2)c(N2CCCC(F)(F)CC2)nc1C(F)(F)F [Compound 191, 5-chloro-2-[2-(4,4-difluoroazepan-1-yl)-5-methyl-6-(trifluoromethyl)-3-pyridyl]-1H-1,6-naphthyridin-4-one] | < 500
COc1cc(F)ccc1Oc1ncc(C(F)(F)F)c(C)c1-c1cc(=O)c2c(C(N)=O)nccc2[nH]1 [Compound 43, 2-[2-(4-fluoro-2-methoxy-phenoxy)-4-methyl-5-(trifluoromethyl)-3-pyridyl]-4-oxo-1H-1,6-naphthyridine-5-carboxamide] | < 500
COc1ccc2[nH]c(-c3cc(F)c(C(F)(F)F)cc3Oc3ccc(F)c(F)c3OC)cc(=O)c2c1 [Compound 159, 2-[2-(3,4-difluoro-2-methoxy-phenoxy)-5-fluoro-4-(trifluoromethyl)phenyl]-6-methoxy-1H-quinolin-4-one] | < 500
CC(C)(C)c1ccc(-c2cc(=O)c3c(C(N)=O)nccc3[nH]2)c(C2=CCC(F)(F)CC2)c1 [Compound 108, 2-[4-tert-butyl-2-(4,4-difluorocyclohexen-1-yl)phenyl]-4-oxo-1H-1,6-naphthyridine-5-carboxamide] | < 500
COc1ccc2[nH]c(-c3cc(F)c(C(F)(F)F)cc3Oc3ccc(F)c(F)c3OC)cc(=O)c2c1C(N)=O [Compound 163, 2-[2-(3,4-difluoro-2-methoxy-phenoxy)-5-fluoro-4-(trifluoromethyl)phenyl]-6-methoxy-4-oxo-1H-quinoline-5-carboxamide] | < 500
Cc1c(Oc2ncc(C(F)(F)F)c(C)c2-c2cc(=O)c3c(-c4ccc(=O)[nH]c4)nccc3[nH]2)ccc(F)c1F [Compound 215, 2-[2-(3,4-difluoro-2-methyl-phenoxy)-4-methyl-5-(trifluoromethyl)-3-pyridyl]-5-(6-oxo-1H-pyridin-3-yl)-1H-1,6-naphthyridin-4-one] | < 500
Cc1ccc2[nH]c(-c3cc(C)c(C(F)(F)F)nc3N3CCCC(F)(F)CC3)cc(=O)c2c1 [Compound 75, 2-[2-(4,4-difluoroazepan-1-yl)-5-methyl-6-(trifluoromethyl)-3-pyridyl]-6-methyl-1H-quinolin-4-one] | < 500
Cc1nc(Oc2ccc(F)c(F)c2C)c(-c2cc(=O)c3c(C(N)=O)nccc3[nH]2)cc1C(F)(F)F [Compound 45, 2-[2-(3,4-difluoro-2-methyl-phenoxy)-6-methyl-5-(trifluoromethyl)-3-pyridyl]-4-oxo-1H-1,6-naphthyridine-5-carboxamide] | < 500
CCOC(=O)c1c(-c2cc(C(F)(F)F)c(C)nc2Oc2ccc(F)c(F)c2C)[nH]c2cccnc2c1=O [Compound 44, ethyl 2-[2-(3,4-difluoro-2-methyl-phenoxy)-6-methyl-5-(trifluoromethyl)-3-pyridyl]-4-oxo-1H-1,5-naphthyridine-3-carboxylate] | < 500
Cc1c(Oc2cc(C(F)(F)F)ncc2-c2cc(=O)c3cnccc3[nH]2)ccc(F)c1F [Compound 39, 2-[4-(3,4-difluoro-2-methyl-phenoxy)-6-(trifluoromethyl)-3-pyridyl]-1H-1,6-naphthyridin-4-one] | < 500
